This assay addresses voltage-dependent anion-selective channel protein 1 (VDAC1), endogenous in mouse cortex (mouse (endogenous in mouse cortex)) (UniProt Q60932). Nature of the assay: co-IP; cortex samples surrounding the hematoma of mice, sham and ICH 24 h groups; incubated overnight at 4 °C with IgG (negative control) or antibody (1 µg), protein A/G agarose beads 4 h at 4 °C, western blot; which protein was precipitated is not told.

Protein sequences, listed by entry. Tags and fused reporters are not part of them. Lines headed by an entry give the natural chain unless they say otherwise; changes in a name come on top.
UniProt Q60932: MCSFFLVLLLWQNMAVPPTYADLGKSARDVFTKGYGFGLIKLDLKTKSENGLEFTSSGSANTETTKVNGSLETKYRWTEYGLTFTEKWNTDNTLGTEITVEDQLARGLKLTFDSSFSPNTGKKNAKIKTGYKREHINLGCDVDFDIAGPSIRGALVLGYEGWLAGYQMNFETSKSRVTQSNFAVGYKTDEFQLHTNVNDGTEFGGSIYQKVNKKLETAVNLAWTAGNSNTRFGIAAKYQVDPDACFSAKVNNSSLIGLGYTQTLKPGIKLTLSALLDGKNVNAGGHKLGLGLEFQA
UniProt Q8VCC8: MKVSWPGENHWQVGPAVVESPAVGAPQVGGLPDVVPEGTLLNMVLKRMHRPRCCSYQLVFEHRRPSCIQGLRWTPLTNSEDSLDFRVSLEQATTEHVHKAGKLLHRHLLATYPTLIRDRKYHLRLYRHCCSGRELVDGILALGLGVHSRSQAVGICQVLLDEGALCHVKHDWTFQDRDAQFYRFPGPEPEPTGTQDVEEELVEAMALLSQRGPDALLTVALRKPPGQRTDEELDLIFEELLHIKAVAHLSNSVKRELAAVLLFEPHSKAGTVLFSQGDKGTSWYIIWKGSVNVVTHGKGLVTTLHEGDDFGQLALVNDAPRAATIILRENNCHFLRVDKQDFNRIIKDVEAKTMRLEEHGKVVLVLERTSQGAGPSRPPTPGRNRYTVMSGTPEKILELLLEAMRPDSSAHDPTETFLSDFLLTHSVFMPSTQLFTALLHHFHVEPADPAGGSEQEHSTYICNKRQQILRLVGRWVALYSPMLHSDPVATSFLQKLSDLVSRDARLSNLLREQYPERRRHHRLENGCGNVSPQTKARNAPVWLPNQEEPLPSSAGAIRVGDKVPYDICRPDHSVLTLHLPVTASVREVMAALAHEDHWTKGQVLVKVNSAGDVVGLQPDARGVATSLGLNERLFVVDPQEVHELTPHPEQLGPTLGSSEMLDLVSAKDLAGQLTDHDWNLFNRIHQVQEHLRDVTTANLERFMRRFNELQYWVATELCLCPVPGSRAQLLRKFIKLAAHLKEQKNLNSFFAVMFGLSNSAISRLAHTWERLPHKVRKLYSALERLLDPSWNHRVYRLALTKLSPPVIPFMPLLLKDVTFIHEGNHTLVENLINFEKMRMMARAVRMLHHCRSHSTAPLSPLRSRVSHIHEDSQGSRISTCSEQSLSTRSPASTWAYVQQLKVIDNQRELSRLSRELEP

Results are given in words; binding and its absence hold for the method and conditions named. In cells and extracts the contact can be indirect. Binding can be weak; no strength is given.

The values that follow come from publication PMC11109624, “Celastrol Ameliorates Neuronal Mitochondrial Dysfunction Induced by Intracerebral Hemorrhage via Targeting cAMP‐Activated Exchange Protein‐1” (Advanced Science, 2024).

As to “cAMP-activated exchange protein-1 (EPAC-1), endogenous in mouse cortex (from UniProt Q8VCC8 1-918)”, the binding entry is listed as “binds”.
